14 compounds from the odorant receptor screen of Mainland et al. (2015) can be followed below.

What all share (assay): odorant receptor activation (CRE luciferase / Renilla) (fold of no-odor wells); higher = more activation
Common to all, as to conditions: 100 µM

Test [1] has as its system OR13C3 G2C clone 1339.
Test [2] has as its system OR13C3 clone 1390.
In test [3] the test system is OR13C4 clone 1094.
The subject of test [4] is OR13C5 S18F/L69M/P79S/L86V/N128S/M258T clone 1477.
Test [5] concerns OR13C7 Indel clone 1100.
Test [6] concerns OR13C8 clone 1095.
For test [7], the system named is OR13C9 F197L clone 1096.
Test [8] has as its system OR13D1 clone 1338.
In test [9] the test system is OR13D1 clone 1484.
For test [10], the system named is OR13F1 F18S/M101V/V134I/I270T clone 1097.
Test [11] relates to OR13G1 I132V clone 1036.
In test [12] the test system is OR13H1 clone 1497.
Test [13] has as its system OR13J1 H133R clone 1098.
Test [14] relates to OR14A16 Indel clone 1030.
The test system of test [15] is OR14A2 clone 1042.
The test system of test [16] is OR14C36 G225R/D231Y clone 1028.
In test [17] the test system is OR14I1 V36A/D50N/S170N clone 1479.
For test [18], the system named is OR14J1 clone 1318.
Test [19] relates to OR14J1 clone 1391.
Test [20] concerns OR14K1 clone 1043.

Where “and” joins values, the source holds several entries; their conditions need not be identical. Equal values may be shown once. The list shows a part of the results. Single wells; the ratio to wells without odorant was worked out here, and repeats agree poorly.

On to `CC(C)C(=O)O` [isobutyric acid], for which the odorant receptor activation was 1.05 and 0.83 in test [1]; 0.649 in test [2]; 1.08 in test [3]; 0.993 and 0.924 in test [4]; 0.506 in test [5]; 1.31 in test [6]. For the same compound, the odorant receptor activation in [7] was 1.12; in test [8] it was 1.25 and 0.676; in [9], 1.11 and 0.979; in test [10] it was 2.34; in test [11] it was 1.44; in test [12], 0.911 and 1.1. For the same compound, the odorant receptor activation in test [13] is 0.754; in [14], 1.32; in test [15] it was 1.04; in [16], 1.15; in test [17], 1.02 and 0.919; in test [18], 2.15 and 0.804. Further, the odorant receptor activation in test [19] was 0.637; in test [20], 1.12.

For `COc1ccccc1O` [guaiacol], the odorant receptor activation was 0.927 and 0.87 in [1]; 0.801 in [2]; 1.7 in test [3]; 0.889 and 0.927 in [4]; 0.62 in test [5]; 1.76 in test [6]. Besides, the odorant receptor activation in test [7] was 1.4; in [8], 1.3 and 0.797; in [9] it was 1.38 and 1.36; in test [10] it was 2.14; in [11], 1.13; in test [12] it was 0.915 and 1. Further, the odorant receptor activation in test [13] was 0.579; in test [14] it was 1.53; in test [15], 2.94; in test [16], 1.68; in test [17], 0.939 and 1.09; in test [18] it was 0.791 and 0.943. Also, the odorant receptor activation was found to be 0.86 in test [19] and 2.17 in test [20].

As for `CCCCCC(C)=O` [2-heptanone], the odorant receptor activation in test [1] is 0.91; in [2], 0.988; in [3], 0.479; in [4], 0.739 and 0.544; in [5] it was 0.964; in [6], 1.11. Besides, the odorant receptor activation was 0.441 in test [7]; 1.16 in test [8]; 1.09 and 0.746 in test [9]; 0.635 in test [10]; 0.409 in test [11]; 0.727 and 0.715 in [12]. Besides, the odorant receptor activation in test [13] was 0.576; in [14] it was 0.32; in test [15] it was 2.08; in test [16] it was 0.443; in [17], 0.759 and 0.582; in test [18], 0.996. For the same compound, the odorant receptor activation in test [19] was 0.928; in [20], 1.21.

`CC=Cc1ccc(O)c(OC)c1` [isoeugenol]: the odorant receptor activation in [1] was 1.61; in test [2] it was 1.41; in [3], 1.12; in test [4], 0.888 and 1.98; in test [5], 1.06; in test [6] it was 6.25. Further, the odorant receptor activation in test [7] is 2.2; in [8] it was 3.19 and 1.32; in [9], 1.03 and 2.27; in test [10] it was 2.47; in test [11], 0.768; in test [12], 1.04 and 2.04. The odorant receptor activation in test [13] is 0.806; in test [14] it was 1.94; in [15], 1.02; in test [16], 0.792; in test [17], 0.764 and 1.38; in test [18], 2.02 and 1.68. Further, the odorant receptor activation in test [19] stood at 1.52; in test [20] it was 1.23.

For `CCC1(O)C2(C)CCC(C2)C1(C)C` (stereo unspecified) [2-ethylfenchol], the odorant receptor activation in [1] amounted to 0.991; in [2], 0.932; in test [3], 21.8; in test [4], 1.22; in test [5], 13.5; in test [6] it was 2.42. Further, the odorant receptor activation in [7] is 24.7; in test [8] it was 0.87; in test [9], 0.793; in test [10], 2.17; in test [11] it was 3.36; in [12], 0.984. The odorant receptor activation in [13] stood at 3.53; in test [14], 3.55; in test [15] it was 2.8; in test [16], 2.62; in test [17], 0.87; in [18], 1.25. Besides, the odorant receptor activation in test [19] is 1.17; in [20] it was 3.09.

As for `CC(C)CCC(=O)O` [4-methylvaleric acid], the odorant receptor activation amounted to 1.22 in test [1]; 1.08 in test [2]; 14.7 in [3]; 0.993 in test [4]; 6.86 in test [5]; 1.52 in test [6]. In addition, the odorant receptor activation stood at 13.8 in test [7]; 0.838 in [8]; 0.815 in test [9]; 1.17 in test [10]; 1.39 in test [11]; 1.04 in test [12]. Also, the odorant receptor activation stood at 1.92 in [13]; 1.75 in test [14]; 1.73 in test [15]; 1.77 in [16]; 0.813 in test [17]; 1.07 in [18]. The odorant receptor activation in test [19] was 1.52; in test [20], 1.64.

Take `CCCCCOC(C)=O` [n-amyl acetate]: the odorant receptor activation in test [1] is 0.206; in [2], 0.901; in test [3] it was 0.543; in [4], 0.392 and 0.727; in [5], 0.91; in test [6], 2.01. Besides, the odorant receptor activation in [7] was 1.33; in test [8] it was 0.431; in [9], 0.943 and 0.804; in test [10], 1.5; in test [11], 0.64; in [12], 0.704 and 0.788. Moreover, the odorant receptor activation was 1.39 in test [13]; 0.954 in [14]; 2.45 in [15]; 0.819 in test [16]; 0.583 and 0.688 in [17]; 0.413 in test [18]. For the same compound, the figures for the odorant receptor activation in test [19] and in [20] were 0.758 and 1.23, respectively.

As to `c1cnccn1` [pyrazine], the odorant receptor activation in test [1] turned out to be 0.735; in test [2], 1.01; in [3], 0.975; in test [4] it was 0.743; in test [5], 0.839; in test [6] it was 0.914. In addition, the odorant receptor activation in test [7] turned out to be 1.15; in test [8], 0.851; in test [9], 0.569; in test [10], 1.19; in [11], 1.27; in test [12], 0.941. The odorant receptor activation in test [13] came out at 1.48; in test [14] it was 0.966; in test [15], 0.979; in test [16] it was 0.68; in test [17], 0.632; in test [18], 0.746. The figures for the odorant receptor activation in test [19] and in test [20] were 1.21 and 0.964, respectively.

In the case of `CCCCCCCCCCC=O` [undecanal], the odorant receptor activation is 0.654 in test [1]; 0.894 in test [2]; 0.971 in [3]; 1.18 in test [4]; 0.875 in test [5]; 1.16 in test [6]. For the same compound, the odorant receptor activation in test [7] was found to be 0.95; in test [8] it was 0.88; in test [9] it was 0.969; in [10] it was 1.33; in [11], 1.22; in [12] it was 1.19. For the same compound, the odorant receptor activation in test [13] was determined as 1.27; in test [14], 1.22; in [15] it was 0.92; in test [16], 0.849; in test [17], 0.813; in [18], 0.792. The odorant receptor activation was 1.3 in test [19] and 1.03 in [20].

For the compound `CC(C)=CCCC(C)=CC=O` [citral], the odorant receptor activation in test [1] worked out at 1.22; in [2], 0.222; in test [3] it was 1.09; in [4] it was 0.925; in test [5], 1.12; in test [6], 0.907. Moreover, the odorant receptor activation in test [7] came out at 1.08; in test [8] it was 1.17; in test [9], 1.29; in [10], 1.29; in [11] it was 1.22; in [12], 0.892. Further, the odorant receptor activation in test [13] is 0.663; in test [14], 0.927; in [15] it was 1.12; in test [16], 0.996; in [17], 1.09; in [18] it was 0.875. Also, the values for the odorant receptor activation in [19] and in test [20] were 0.182 and 0.93, respectively.

Consider `O=C1CCCCC1` [Cyclohexanone], for which the odorant receptor activation was 0.399 in test [1]; 1.01 in test [2]; 1.04 in [3]; 0.391 and 0.781 in [4]; 0.756 in [5]; 1.34 in test [6]. Moreover, the odorant receptor activation in test [7] is 1.55; in test [8] it was 0.652; in test [9] it was 0.816 and 0.815; in [10], 0.946; in [11] it was 0.741; in test [12], 0.381 and 0.992. The odorant receptor activation in test [13] was 1.14; in test [14], 0.795; in test [15], 0.981; in test [16], 1.06; in [17], 0.628 and 0.713; in [18], 0.751. The odorant receptor activation in test [19] was 0.891; in test [20] it was 0.452.

With `C=C(C)C1CC=CCC1` (stereo unspecified) [r-limonene], the odorant receptor activation in [2] is 1.09 and 0.917; in test [3] it was 1.21 and 1.11; in [4] it was 1.04 and 0.368 and 0.635; in test [5], 0.87 and 1.14; in [6], 1.46 and 1.92; in test [7], 1.33 and 1.58. The odorant receptor activation was 0.869 and 0.429 in test [8]; 0.859 and 1.02 and 0.942 in [9]; 1.32 and 1.21 in test [10]; 1.52 and 0.7 in test [11]; 1.69 and 1.38 in test [13]; 1.67 and 0.859 in [14]. Besides, the odorant receptor activation in test [15] is 1.14 and 2.2; in test [16], 1.17 and 1.26; in [17], 0.84 and 0.673 and 0.753; in test [18], 0.797 and 0.275; in test [19] it was 1.29 and 0.937; in [20], 1.2 and 1.22.

As to `CC12C=CCC1C1CCC3=CC(=O)CCC3(C)C1CC2` (stereo unspecified) [androstadienone], the odorant receptor activation in test [1] is 1.12 and 1.05; in [2] it was 0.877; in test [3], 2.1; in test [4], 0.905 and 1.36; in test [5], 0.642; in test [6], 1.64. Besides, the odorant receptor activation in [7] is 3.41; in test [8] it was 1.52 and 0.792; in [9], 1.12 and 1.27; in test [10] it was 3.95; in test [11], 1.1; in test [12] it was 0.997 and 1.06. In addition, the odorant receptor activation in [13] was 0.916; in test [14], 1.96; in [15], 1.35; in test [16] it was 1.27; in [17], 0.932 and 0.993; in test [18], 0.724 and 1.08. The odorant receptor activation in [19] worked out at 0.751; in test [20], 3.25.

As to `CCCCCCC=O` [heptaldehyde], the odorant receptor activation in test [2] was 1.25 and 0.992; in [3], 0.557 and 1.2; in [5], 0.842 and 0.718; in test [6], 1.19 and 1.61; in test [7], 1.51 and 2.08; in test [10], 1.57 and 3.24. For the same compound, the odorant receptor activation in [11] is 0.799 and 0.909; in [13], 0.817 and 0.495; in [14], 0.916 and 1.52; in [15], 1.65 and 1.56; in test [16], 1.01 and 1.26; in test [19] it was 1.16 and 0.945. Also, the odorant receptor activation in [20] is 0.562 and 1.68.
